Data reported in paper PMC8357632.
Results are given in words; binding and its absence hold for the method and conditions named. Binding seen in cells or lysates may run through a third protein. Some entries that bind do so weakly or less than the wild type.

Molecular target: T1, Hsh155 (S. cerevisiae (endogenous in yeast whole-cell extract)) (UniProt P49955)
T1 sequence: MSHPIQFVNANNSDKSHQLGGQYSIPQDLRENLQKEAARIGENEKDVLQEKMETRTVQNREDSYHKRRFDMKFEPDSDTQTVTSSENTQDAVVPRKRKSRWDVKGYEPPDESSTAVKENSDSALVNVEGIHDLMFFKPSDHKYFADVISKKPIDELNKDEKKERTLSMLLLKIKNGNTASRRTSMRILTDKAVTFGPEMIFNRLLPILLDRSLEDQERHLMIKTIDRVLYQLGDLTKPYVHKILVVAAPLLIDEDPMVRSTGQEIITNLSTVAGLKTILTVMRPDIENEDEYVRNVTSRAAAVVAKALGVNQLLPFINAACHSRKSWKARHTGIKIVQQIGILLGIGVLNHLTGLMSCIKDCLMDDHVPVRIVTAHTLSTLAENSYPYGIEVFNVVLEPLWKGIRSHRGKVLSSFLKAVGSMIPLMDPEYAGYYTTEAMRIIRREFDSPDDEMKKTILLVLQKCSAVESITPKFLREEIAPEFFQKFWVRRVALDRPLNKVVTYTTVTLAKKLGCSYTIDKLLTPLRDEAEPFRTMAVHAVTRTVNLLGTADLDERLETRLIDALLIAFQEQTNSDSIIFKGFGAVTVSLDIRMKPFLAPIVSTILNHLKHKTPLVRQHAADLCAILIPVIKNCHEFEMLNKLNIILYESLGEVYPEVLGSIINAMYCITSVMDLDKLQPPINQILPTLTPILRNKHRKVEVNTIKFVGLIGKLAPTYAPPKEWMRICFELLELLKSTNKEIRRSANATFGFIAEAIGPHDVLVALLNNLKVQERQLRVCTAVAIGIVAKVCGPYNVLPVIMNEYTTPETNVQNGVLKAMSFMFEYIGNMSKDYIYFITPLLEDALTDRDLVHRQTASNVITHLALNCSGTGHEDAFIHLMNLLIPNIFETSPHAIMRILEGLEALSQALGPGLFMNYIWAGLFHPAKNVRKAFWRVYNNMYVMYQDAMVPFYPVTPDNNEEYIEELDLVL
Experiment: cross-linking; CXMS: MS2 affinity-purified ΔBS-A pre-A complexes cross-linked with 250 μM BS3 for 1 h at 8 °C, glycerol gradient, tryptic digest, mass spectrometry, pLink 2.3.9, FDR 1% or 5%

B1: Prp5 (enzyme, UniProt P21372 1-849)
chain: METIDSKQNINRESLLEERRKKLAKWKQKKAQFDAQKEHQTSRNDIVTNSLEGKQTTEKFTERQERVKEELRKRKNEFRKSDEPVSVKPSKKKSKRSKVKKKISFDFSDDDDSEIGVSFRSKEHIQKAPEHDNEKDPLDEFMTSLKEEKMSNSKGMYDRGDILDVEDQLFELGGTDDEDVEDNTDNSNIAKIAKLKAKKRVKQIYYSPEELEPFQKNFYIESETVSSMSEMEVEELRLSLDNIKIKGTGCPKPVTKWSQLGLSTDTMVLITEKLHFGSLTPIQSQALPAIMSGRDVIGISKTGSGKTISYLLPLLRQVKAQRPLSKHETGPMGLILAPTRELALQIHEEVTKFTEADTSIRSVCCTGGSEMKKQITDLKRGTEIVVATPGRFIDILTLNDGKLLSTKRITFVVMDEADRLFDLGFEPQITQIMKTVRPDKQCVLFSATFPNKLRSFAVRVLHSPISITINSKGMVNENVKQKFRICHSEDEKFDNLVQLIHERSEFFDEVQSENDGQSSDVEEVDAKAIIFVSSQNICDFISKKLLNAGIVTCAIHAGKPYQERLMNLEKFKREKNSILLCTEVLSRGLNVPEVSLVIIYNAVKTFAQYVHTTGRTARGSRSGTAITLLLHDELSGAYILSKAMRDEEIKALDPLQAKELQEMSAKFESGMKKGKFRLSKGFGGKGLENIKSKREEAQNKDLELKKNDKRSDDLEKKISNPREGHDSVSESSALIPRLNYELFKESTDGSIIFYAKVYINDLPQIVRWEATKNTTLLFIKHETGCSITNKGKFYPEGKEPKNENDEPKLYLLIEGQDEKDIQLSIELLEQKVKEGVVKAASLSLKSTKY
  binding: binds
